Article PMC11077370
Results are given in words; binding and its absence hold for the method and conditions named. In cells and extracts the contact can be indirect. Some entries that bind do so weakly or less than the wild type.

Chains of the proteins cited; added tags and fusions are not shown. Residues count along the entry.
UniProt P02545, residues 1-646: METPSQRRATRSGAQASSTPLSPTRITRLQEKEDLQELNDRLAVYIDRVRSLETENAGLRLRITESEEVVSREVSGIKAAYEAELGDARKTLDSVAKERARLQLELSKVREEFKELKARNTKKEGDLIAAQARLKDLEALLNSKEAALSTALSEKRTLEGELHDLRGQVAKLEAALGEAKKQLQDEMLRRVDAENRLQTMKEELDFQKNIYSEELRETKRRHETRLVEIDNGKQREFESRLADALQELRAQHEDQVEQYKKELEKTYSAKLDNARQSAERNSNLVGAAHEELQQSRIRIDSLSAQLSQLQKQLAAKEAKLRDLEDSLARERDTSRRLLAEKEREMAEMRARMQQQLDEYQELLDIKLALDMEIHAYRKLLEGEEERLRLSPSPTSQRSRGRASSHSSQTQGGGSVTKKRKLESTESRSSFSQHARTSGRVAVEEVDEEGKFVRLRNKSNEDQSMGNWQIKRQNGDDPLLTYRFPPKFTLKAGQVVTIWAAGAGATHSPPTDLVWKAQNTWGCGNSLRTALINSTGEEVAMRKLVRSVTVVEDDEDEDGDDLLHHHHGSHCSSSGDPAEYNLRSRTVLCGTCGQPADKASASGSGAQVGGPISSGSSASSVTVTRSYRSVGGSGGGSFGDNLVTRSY
UniProt P31749: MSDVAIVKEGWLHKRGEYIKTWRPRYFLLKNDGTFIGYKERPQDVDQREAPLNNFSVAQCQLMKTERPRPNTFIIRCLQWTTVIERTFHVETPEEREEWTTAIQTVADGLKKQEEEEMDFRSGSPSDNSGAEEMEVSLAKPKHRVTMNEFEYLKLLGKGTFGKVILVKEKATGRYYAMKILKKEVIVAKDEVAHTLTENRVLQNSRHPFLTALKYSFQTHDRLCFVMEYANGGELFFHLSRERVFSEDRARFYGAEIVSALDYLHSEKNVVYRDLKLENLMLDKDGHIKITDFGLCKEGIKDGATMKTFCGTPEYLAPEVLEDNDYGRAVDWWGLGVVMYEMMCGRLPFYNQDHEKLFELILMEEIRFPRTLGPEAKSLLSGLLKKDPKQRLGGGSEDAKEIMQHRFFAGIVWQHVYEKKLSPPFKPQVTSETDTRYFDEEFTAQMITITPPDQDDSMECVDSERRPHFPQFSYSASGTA

Target: HA-lamin A/C (wild type) (UniProt P02545)
Assay: co-IP; Flag-Akt1 and HA-lamin A/C co-transfected in HEK293T; NP40 lysate, anti-HA or anti-Flag magnetic beads, 4 °C overnight, Western blotting

binding: binds
Substance: Flag-Akt1 (from UniProt P31749 1-480) (enzyme)
